The values below come from publication PMC4117494.

These are yes or no findings as the source states them, for the method shown. In cells and extracts the contact can be indirect. Binding can be weak; no strength is given.

In the assay the target is Archaeoglobus fulgidus Nop5 lacking the C-terminal charged tail, histidine-tagged (Archaeoglobus fulgidus). In words: co-purification after co-expression (Ni-NTA affinity, gel filtration); Af Nop5 (single histidine tag), fibrillarin, L7Ae and sR3 or tRNA-sR3 RNA co-expressed in E. coli Rosetta (DE3); lysate in 25 mM Na2HPO4 pH 7.6, 500 mM NaCl, 10% glycerol heated at 70°C for 30 minutes; Ni-NTA, then Superdex 200; proteins identified by SDS-PAGE (silver stain) and mass spectroscopy. A general note: In gel filtration, larger molecules generally elute earlier.

B1: Archaeoglobus fulgidus fibrillarin (protein, UniProt O28192 1-210)
chain: MKELMRNVYLLDDTLVTKSKYGSHYGEKVFDGYREWVPWRSKLAAMILKGHRLKLRGDERVLYLGAASGTTVSHLADIVDEGIIYAVEYSAKPFEKLLELVRERNNIIPLLFDASKPWKYSGIVEKVDLIYQDIAQKNQIEILKANAEFFLKEKGEVVIMVKARSIDSTAEPEEVFKSVLKEMEGDFKIVKHGSLMPYHRDHIFIHAYRF
For the molecule B1, the binding entry is reported as “binds”.
